Measured values from patent US20240342302A1, “DEGRADER-ANTIBODY CONJUGATES AND METHODS OF USING SAME” (Angiex, Inc., priority 2021, published 2024).
These are yes or no findings as the source states them, for the method shown. Some entries that bind do so weakly or less than the wild type. One block for each binder: values may come before it.

Target: T1, transmembrane-4 L six family member-1 (TM4SF1) (human) (UniProt P30408)
T1 sequence: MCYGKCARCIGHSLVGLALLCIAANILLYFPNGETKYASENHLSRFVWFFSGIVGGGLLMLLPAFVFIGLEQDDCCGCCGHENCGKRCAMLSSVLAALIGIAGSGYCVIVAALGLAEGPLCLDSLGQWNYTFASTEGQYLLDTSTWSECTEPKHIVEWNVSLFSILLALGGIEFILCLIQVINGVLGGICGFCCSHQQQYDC
Test: screen, method not described

B1: murine monoclonal antibody AGX-A07 (antibody, V domains shown)
VH: QIQLVQSGPELKKPGETVKISCKASGYTFTNYGVKWVKQAPGKDLKWMGWINTYTGNPIYAADFKGRFAFSLETSASTAFLQINNLKNEDTATYFCVRFQYGDYRYFDVWGAGTTVTVSS
VL: QIILSQSPAILSASPGEKVTMTCRANSGISFINWYQQKPGSSPKPWIYGTANLASGVPARFGGSGSGTSYSLTISRVEAEDAATYYCQQWSSNPLTFGAGTKLELR
binding: binds

B3: murine monoclonal antibody AGX-A03 (antibody, V domains shown)
VH: QIQLVQSGPELKKPGETVKISCKASGYSFRDYGMNWVKQAPGRTFKWMGWINTYTGAPVYAADFKGRFAFSLDTSASAAFLQINNLKNEDTATYFCARWVSYGNNRNWFFDFWGAGTTVTVSS
VL: DVLMTQTPLSLPVRLGDQASISCRSSQTLVHSNGNTYLEWYLQKPGQSPKLLIYKVSNRLSGVPDRFSGSGSGTDFTLKISRVETEDLGVYYCFQGSHGPWTFGGGTKLEIK
binding: binds

B5: murine monoclonal antibody AGX-A04 (antibody, V domains shown)
VH: EVQLQQSGPELVKPGASVKISCKTSGYTFTDYTMHWVRQSHGKSLEWIGSFNPNNGGLTNYNQKFKGKATLTVDKSSSTVYMDLRSLTSEDSAVYYCTRIRATGFDSWGQGTTLTVSS
VL: DIVMSQSPSSLAVSAGEKVTMSCKSSQSLLNSRTRKNYLAWYQQKPGQSPKLLIYWASTRESGVPDRFTGSGSGTDFTLTISNVQAEDLTVYYCKQSYNPPWTFGGGTKLEIK
binding: binds

B6: murine monoclonal antibody AGX-A05 (antibody, V domains shown)
VH: EVQVQQSGPELVKPGASVKMSCKASGYTFTSYVMHWVKQKPGQGLEWIGYINPNNDNINYNEKFKGKASLTSDKSSNTVYMELSSLTSEDSAVYYCAGYGNSGANWGQGTLVTVSA
VL: DIQMTQSPASLSASVGETVTITCRTSKNIFNFLAWYHQKQGRSPRLLVSHTKTLAAGVPSRFSGSGSGTQFSLKINSLQPEDFGIYYCQHHYGTPWTFGGGTKLEIK
binding: binds

The remaining lines, values ahead:

binding: binds
B2: murine monoclonal antibody AGX-A09 (antibody, V domains shown)
VH: EVQLQQSGPELVKPGASVKMSCKASGYTFSSYVMHWVKQKPGQGLEWIGYINPYSDVTNYNEKFKGKATLTSDRSSNTAYMELSSLTSEDSAVYYCARNYFDWGRGTLVTVSA
VL: DIQMTQSPASLSASVGETVTITCRASKNVYSYLAWFQQKQGKSPQLLVYNAKTLAEGVPSRFSGGGSGTQFSLKINSLQPADFGSYYCQHHYNIPFTFGSGTKLEIK

binding: binds
B4: murine monoclonal antibody AGX-A08 (antibody, V domains shown)
VH: EVQLQQSGPELVKPGASVKLSCKASGYTVTSYVMHWVKQKPGQGLEWIGYINPYSDVTNCNEKFKGKATLTSDKTSSTAYMELSSLTSEDSAVYYCSSYGGGFAYWGQGTLVTVSA
VL: DIQMTQSPASLSASVGEPVTITCRASKNIYTYLAWYHQKQGKSPQFLVYNARTLAGGVPSRLSGSGSVTQFSLNINTLHREDLGTYFCQHHYDTPYTFGGGTNLEIK
